Record: PubChem BioAssay AID1259425 (University of Nebraska Medical Center, 2018)

Purpose: 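Find knockdowns that reproduce the gene expression pattern seen when KSR1 is lost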 (primary screen)
Cells: HCT116 human colon cancer cells
Reagent: siRNA pool against human genes, 50 nM siRNA
Detection: 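After 50 nM siRNA pool, branched-DNA assay measures six marker transcripts per well, minus blank, normalised to the geometric mean of two housekeeping transcripts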
Reading the numbers: BNIP3L mRNA: higher = more BNIP3L transcript after knockdown; NDRG1 mRNA: higher = more NDRG1 transcript after knockdown; BNIP3 mRNA: higher = more BNIP3 transcript after knockdown; ALDOC mRNA: higher = more ALDOC transcript after knockdown; ACSL5 mRNA: higher = more ACSL5 transcript after knockdown
The whole screen tested about 14,000 reagents; below is an unselected part. Reagent sequences are not shown. Not stated in the record: the time to read-out.

target gene	BNIP3L mRNA, set 1	NDRG1 mRNA, set 1	BNIP3 mRNA, set 1	ALDOC mRNA, set 1	ACSL5 mRNA, set 1
SRPK1 (GeneID 6732)	0.246	0.266	0.294	0.0182	0.289
RPS13 (GeneID 6207)	0.0287	0.155	0.381	0.00378	0.0906
H2BC21 (GeneID 8349)	0.0675	0.774	0.219	0.00577	0.256
TECPR2 (GeneID 9895)	0.145	0.938	0.263	0.0333	0.215
F9 (GeneID 2158)	0.065	0.0847	0.298	0.0134	0.159
LARP1 (GeneID 23367)	0.278	0.53	0.416	0.0811	0.358
TRIM48 (GeneID 79097)	0.0918	0.138	0.294	0.0319	0.154
GYG2 (GeneID 8908)	0.0981	0.161	0.299	0.0385	0.0471
ASB4 (GeneID 51666)	0.0974	0.516	0.322	0.0138	0.293
NRG2 (GeneID 9542)	0.137	0.087	0.289	0.0104	0.0729
TESPA1 (GeneID 9840)	0.104	0.139	0.224	0.035	0.246
GON4L (GeneID 54856)	0.083	0.311	0.345	0.0292	0.174
SLC18A2 (GeneID 6571)	0.105	0.316	0.392	0.0266	0.265
RLN2 (GeneID 6019)	0.0713	0.0749	0.242	0.000666	0.0605
ORM2 (GeneID 5005)	0.202	0.571	0.277	0.0987	0.161
SMARCD2 (GeneID 6603)	0.0871	0.133	0.366	0.019	0.0878
ADAM33 (GeneID 80332)	0.144	0.577	0.361	0.0633	0.235
IRAK3 (GeneID 11213)	0.175	0.122	0.429	0.00731	0.432
TBXT (GeneID 6862)	0.309	0.513	0.278	0.0178	0.198
NDUFC1 (GeneID 4717)	0.18	0.061	0.258	0.0251	0.162

Part of the list above, set out differently:
target gene | BNIP3L mRNA, set 1 | NDRG1 mRNA, set 1 | BNIP3 mRNA, set 1 | ALDOC mRNA, set 1 | ACSL5 mRNA, set 1
TECPR2 (GeneID 9895) | 0.145 | 0.938 | 0.263 | 0.0333 | 0.215
F9 (GeneID 2158) | 0.065 | 0.0847 | 0.298 | 0.0134 | 0.159
